Source: PubChem BioAssay AID493208 (National Center for Advancing Translational Sciences (NCATS), 2011)
The campaign covered roughly 44,000 compounds. About 340 (0.77%) were called active. The source calls these results inconclusive, neither active nor inactive. Calls follow the shape of the dose curve; as a rule, active = well fitted inhibition curve with a large enough effect; inconclusive = small, poorly fitted or top-dose-only effect; inactive = flat fitted curve, though single readings scatter.

Test: Acumen qHTS Assay for Inhibitors of the mTORC1 Signaling Pathway in MEF (Tsc2-/-, p53-/-) Cells: Sytravon; also: nearly all actives have a fitted effect of over 50% in size
Settings: phospho-rpS6 immunofluorescence/PI, 24 h
Excerpt: NIH Molecular Libraries Probe Production Centers Network [MLPCN] NIH Chemical Genomics Center [NCGC] MLPCN Grant: NS059428-01 Assay Submitter (PI): Blenis, John; Hoffman, Greg; Harvard University NCGC Assay Overview: The mammalian target of rapamycin (mTOR) is an intracellular serine/threonine kinase Aberrant regulation of mTOR signaling plays a causative role in a number of human diseases, including cancer, benign tumors such as lymphangioleiomyomatosis (LAM) and Tuberous Sclerosis Complex (TSC), and metabolic diseases such as diabetes and obesity. This project aims to identify inhibitors of ribosomal protein S6 (rpS6) phosphorylation. The phosphorylation of rpS6 is a key event downstream of mTOR activation. […]
NCGC Acumen Assay Protocol Summary: For quantitative high throughput analysis of mTORC1 signaling, we developed a cell-based assay for immuno-fluorescence based detection of rpS6 phosphorylation on the Acumen Explorer that will be used a platform for the primary small molecule screen. […] The normalized phospho-S6 staining is calculated as the ratio of the integrated Alexa 488 intensity divided by the integrated PI intensity for the single concentration rapamycin control (7.5 nM) and DMSO columns. […] In addition to the pathway specific phospho-S6 endpoint, the number of PI stained cells from the Acumen is recorded as a measure of cell viability. […]
Potency is read from the fitted curve at half-maximal effect.

Row | SMILES | Potency
1 | CN(C)C1(CNC(=O)c2ccc(C(C)(C)C)cc2)CCCCC1 | inconclusive: 16.5 µM
